# Source: the supplement of paper PMC10849652
# Chains of the proteins cited; added tags and fusions are not shown. Lines headed by an entry give the natural chain unless they say otherwise; changes in a name come on top.
# UniProt Q96JB1: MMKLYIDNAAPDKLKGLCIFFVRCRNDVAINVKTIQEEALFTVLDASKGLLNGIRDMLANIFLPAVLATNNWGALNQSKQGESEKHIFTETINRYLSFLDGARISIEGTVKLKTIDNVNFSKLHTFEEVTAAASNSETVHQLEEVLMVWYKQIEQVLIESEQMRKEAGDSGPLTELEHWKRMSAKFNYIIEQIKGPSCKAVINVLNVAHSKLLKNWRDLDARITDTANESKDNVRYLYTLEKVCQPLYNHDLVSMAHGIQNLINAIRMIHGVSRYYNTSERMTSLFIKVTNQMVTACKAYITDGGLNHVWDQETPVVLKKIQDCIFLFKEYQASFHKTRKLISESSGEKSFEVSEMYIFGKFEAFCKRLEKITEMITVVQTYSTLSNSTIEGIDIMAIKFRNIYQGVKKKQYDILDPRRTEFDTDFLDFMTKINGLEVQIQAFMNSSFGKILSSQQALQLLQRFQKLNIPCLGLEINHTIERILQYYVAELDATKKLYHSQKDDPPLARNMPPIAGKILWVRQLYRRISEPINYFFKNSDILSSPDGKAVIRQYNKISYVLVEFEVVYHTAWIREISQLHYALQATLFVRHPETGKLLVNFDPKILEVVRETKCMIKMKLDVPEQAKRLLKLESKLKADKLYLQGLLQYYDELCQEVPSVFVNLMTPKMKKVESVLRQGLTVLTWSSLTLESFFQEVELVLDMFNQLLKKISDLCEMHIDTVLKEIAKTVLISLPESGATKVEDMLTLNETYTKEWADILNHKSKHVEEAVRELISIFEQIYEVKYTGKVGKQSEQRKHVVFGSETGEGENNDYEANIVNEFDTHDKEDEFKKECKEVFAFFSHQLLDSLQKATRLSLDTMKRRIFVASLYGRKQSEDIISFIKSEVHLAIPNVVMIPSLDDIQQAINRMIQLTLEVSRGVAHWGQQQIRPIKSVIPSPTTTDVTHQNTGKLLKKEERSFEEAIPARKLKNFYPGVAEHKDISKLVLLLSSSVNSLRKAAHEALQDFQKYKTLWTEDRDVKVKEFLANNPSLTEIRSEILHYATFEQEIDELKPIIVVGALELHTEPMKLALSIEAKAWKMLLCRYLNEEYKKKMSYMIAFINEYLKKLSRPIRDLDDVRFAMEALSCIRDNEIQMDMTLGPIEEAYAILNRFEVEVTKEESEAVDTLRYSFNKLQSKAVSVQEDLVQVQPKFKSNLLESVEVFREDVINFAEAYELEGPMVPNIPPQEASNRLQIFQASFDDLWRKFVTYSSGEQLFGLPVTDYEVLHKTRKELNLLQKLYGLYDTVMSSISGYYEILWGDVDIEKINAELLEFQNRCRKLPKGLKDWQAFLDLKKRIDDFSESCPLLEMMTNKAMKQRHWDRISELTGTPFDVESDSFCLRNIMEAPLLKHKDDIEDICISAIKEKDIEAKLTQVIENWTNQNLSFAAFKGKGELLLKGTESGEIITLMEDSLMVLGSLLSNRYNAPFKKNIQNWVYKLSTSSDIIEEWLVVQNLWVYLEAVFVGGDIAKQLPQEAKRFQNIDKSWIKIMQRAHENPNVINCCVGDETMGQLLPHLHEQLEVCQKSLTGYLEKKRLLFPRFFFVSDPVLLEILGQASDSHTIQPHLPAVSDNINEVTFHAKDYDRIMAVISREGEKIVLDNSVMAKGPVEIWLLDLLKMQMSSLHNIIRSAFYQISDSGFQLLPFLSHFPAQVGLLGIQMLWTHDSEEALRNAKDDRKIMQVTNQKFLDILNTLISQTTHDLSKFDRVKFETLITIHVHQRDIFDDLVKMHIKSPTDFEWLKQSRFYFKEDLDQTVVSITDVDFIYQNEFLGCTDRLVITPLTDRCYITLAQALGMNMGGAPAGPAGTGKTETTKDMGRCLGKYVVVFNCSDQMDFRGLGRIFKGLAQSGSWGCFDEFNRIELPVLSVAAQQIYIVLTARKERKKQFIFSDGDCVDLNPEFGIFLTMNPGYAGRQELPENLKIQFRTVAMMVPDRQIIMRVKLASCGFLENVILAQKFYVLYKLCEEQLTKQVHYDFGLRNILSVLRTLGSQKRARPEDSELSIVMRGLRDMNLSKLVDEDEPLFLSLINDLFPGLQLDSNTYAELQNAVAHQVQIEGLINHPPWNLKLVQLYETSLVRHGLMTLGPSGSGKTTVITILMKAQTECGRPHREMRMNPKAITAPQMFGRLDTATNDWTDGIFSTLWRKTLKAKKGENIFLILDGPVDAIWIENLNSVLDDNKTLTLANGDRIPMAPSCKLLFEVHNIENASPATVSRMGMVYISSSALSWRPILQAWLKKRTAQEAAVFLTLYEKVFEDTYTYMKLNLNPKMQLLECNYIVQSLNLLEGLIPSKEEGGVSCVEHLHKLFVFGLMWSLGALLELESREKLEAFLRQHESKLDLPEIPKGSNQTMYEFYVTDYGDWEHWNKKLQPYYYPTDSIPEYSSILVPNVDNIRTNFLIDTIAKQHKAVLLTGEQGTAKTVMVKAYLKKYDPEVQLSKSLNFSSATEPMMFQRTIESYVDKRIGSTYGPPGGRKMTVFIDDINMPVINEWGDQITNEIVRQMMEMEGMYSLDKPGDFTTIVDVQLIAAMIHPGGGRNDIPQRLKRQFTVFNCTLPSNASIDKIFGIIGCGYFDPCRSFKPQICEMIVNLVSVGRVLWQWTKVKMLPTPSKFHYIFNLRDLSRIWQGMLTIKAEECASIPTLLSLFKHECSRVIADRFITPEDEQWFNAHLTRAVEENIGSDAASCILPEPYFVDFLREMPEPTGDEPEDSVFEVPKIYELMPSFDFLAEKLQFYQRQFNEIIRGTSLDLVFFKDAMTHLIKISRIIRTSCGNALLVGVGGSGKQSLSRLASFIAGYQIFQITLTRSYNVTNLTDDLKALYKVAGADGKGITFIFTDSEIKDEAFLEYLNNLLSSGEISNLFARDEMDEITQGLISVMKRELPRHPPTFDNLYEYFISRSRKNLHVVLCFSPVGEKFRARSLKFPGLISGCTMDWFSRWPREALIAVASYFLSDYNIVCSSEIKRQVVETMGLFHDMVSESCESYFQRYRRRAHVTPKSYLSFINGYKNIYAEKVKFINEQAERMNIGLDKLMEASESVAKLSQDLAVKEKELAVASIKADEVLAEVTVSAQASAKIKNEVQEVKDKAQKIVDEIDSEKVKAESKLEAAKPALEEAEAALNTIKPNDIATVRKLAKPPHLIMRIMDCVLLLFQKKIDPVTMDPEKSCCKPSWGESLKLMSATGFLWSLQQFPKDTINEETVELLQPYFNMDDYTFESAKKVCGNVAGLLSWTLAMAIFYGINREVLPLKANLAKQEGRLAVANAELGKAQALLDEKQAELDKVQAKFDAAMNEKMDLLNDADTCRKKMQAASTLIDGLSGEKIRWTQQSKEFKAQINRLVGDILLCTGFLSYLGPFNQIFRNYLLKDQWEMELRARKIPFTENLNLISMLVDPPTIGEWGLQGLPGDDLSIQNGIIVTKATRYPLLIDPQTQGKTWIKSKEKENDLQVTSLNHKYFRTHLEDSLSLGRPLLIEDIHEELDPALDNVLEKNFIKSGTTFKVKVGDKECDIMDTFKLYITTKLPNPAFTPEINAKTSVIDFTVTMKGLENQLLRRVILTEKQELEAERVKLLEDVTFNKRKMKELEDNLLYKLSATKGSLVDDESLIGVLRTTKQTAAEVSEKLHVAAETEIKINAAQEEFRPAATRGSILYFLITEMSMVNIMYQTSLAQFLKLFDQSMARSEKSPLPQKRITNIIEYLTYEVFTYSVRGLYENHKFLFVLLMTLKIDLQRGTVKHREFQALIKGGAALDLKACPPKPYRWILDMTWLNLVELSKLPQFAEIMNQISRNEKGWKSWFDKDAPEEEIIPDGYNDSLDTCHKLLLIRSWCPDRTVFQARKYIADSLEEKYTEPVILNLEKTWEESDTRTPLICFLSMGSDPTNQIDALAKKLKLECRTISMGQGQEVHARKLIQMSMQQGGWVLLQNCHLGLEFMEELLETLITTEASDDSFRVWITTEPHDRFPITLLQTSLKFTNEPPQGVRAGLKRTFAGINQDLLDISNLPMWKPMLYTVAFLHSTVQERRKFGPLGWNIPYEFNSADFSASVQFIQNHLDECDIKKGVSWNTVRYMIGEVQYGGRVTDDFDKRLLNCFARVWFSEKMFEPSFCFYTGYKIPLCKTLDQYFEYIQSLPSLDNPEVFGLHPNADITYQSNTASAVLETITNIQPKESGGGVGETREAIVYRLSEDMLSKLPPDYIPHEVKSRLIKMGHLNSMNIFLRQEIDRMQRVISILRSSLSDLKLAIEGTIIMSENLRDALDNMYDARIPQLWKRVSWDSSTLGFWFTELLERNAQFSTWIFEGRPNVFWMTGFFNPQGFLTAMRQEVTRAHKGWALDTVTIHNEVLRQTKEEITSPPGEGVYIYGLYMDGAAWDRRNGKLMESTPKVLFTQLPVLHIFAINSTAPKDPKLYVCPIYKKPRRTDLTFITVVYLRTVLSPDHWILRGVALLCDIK
# UniProt O60884: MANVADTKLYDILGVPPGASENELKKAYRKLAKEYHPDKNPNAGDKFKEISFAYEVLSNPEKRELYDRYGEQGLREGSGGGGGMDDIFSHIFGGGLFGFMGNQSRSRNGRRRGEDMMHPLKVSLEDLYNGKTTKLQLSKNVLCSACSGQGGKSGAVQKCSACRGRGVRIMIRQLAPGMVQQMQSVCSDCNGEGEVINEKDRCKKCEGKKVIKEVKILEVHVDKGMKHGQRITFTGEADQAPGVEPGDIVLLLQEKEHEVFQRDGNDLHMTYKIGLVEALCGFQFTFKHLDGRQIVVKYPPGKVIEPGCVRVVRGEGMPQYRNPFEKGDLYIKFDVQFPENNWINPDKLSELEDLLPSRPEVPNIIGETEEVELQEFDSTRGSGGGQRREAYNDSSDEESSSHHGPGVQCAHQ
# UniProt P30046: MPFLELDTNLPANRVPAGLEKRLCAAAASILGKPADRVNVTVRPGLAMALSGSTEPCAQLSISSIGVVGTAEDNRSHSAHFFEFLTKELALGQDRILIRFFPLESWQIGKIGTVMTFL
# UniProt O00148, whole entry, looked up: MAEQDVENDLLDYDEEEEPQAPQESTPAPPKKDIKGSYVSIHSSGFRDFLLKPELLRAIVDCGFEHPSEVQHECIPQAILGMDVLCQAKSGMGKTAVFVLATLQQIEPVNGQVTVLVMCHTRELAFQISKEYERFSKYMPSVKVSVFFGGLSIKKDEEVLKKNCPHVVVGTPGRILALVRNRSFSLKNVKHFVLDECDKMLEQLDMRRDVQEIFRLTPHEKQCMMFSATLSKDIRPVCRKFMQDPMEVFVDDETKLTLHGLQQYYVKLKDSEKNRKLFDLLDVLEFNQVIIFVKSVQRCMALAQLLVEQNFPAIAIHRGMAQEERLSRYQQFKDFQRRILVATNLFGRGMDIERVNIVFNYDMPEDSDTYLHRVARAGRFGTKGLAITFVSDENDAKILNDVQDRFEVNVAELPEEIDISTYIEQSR
# UniProt Q8IWF6: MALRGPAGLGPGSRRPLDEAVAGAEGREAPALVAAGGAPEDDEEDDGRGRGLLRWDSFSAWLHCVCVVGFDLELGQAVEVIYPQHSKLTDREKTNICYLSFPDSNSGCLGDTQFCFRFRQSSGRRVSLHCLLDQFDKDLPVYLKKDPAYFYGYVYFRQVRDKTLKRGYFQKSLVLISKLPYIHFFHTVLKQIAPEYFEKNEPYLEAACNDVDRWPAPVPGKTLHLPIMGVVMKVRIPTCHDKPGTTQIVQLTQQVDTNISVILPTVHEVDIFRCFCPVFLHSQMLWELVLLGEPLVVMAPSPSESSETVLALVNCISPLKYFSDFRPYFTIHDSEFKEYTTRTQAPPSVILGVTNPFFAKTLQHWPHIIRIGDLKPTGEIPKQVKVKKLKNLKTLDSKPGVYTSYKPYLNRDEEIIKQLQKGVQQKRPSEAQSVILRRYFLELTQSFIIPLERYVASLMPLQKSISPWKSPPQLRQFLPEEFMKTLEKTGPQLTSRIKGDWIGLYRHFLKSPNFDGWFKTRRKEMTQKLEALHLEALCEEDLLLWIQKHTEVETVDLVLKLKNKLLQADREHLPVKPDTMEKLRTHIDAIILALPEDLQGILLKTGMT
# UniProt P17661, whole entry, looked up: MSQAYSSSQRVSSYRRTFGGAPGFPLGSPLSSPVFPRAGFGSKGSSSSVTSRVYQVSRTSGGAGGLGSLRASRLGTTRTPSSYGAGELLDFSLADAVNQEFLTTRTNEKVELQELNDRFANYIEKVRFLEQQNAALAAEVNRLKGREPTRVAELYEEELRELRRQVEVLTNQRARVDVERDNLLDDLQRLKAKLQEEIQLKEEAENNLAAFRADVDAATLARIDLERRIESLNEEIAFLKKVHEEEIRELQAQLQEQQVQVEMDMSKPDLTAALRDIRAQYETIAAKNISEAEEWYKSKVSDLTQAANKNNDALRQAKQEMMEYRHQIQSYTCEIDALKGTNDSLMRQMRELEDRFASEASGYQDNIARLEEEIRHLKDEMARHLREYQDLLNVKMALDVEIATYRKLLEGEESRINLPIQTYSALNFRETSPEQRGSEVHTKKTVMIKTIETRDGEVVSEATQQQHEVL
# The other results are listed elsewhere or left out.
# Columns and labels:
# Assay in all cases: log2 fold change, soluble protein after heating vs DMSO (PISA); higher = thermal stabilisation; K562 cells, 10 uM, 30 min; active = over 0.2 and 3.5 SD of the protein, either way, in both replicates (recomputed)
# erlotinib = compound: C#Cc1cccc(Nc2ncnc3cc(OCCOC)c(OCCOC)cc23)c1 [erlotinib]
# How it was run: (§1)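 Aliquots of K562 cells (2×10^6 cells/mL) treated with 10 μM compound for 30 min were heated for 3 min over 48°C-58°C. After pooling and extraction in PBS with 0.5% NP-40 at 4°C, soluble protein from a 21,000xg, 90 min spin was quantified by TMTpro 16plex LC-MS/MS with channel sums equalised. Thermal stability is expressed against control samples, from duplicates, as a log2 fold change.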
# [1] = compound: C/C(=N\NC(=O)C1=CC(=CC=C1)S(=O)(=O)N2CCOCC2)/C3=C(C=CC(=C3)Cl)O
# How it was run: as §1
# [2] = compound: C1=CC(=C(C=C1Cl)C2=NC3=NC=CN=C3C(=N2)NC4=CC=NC=C4)F
# How it was run: as §1
# [3] = compound: C1=CC(=CC=C1C2=NC3=C(N2)C=C(C=C3)C(=O)N)OC4=CC=C(C=C4)Cl
# How it was run: as §1
# [4] = compound: C1=CC2=C(C=CC(=C2)/C=C\3/C(=O)NC(=NCC4=CC=CS4)S3)N=C1
# How it was run: as §1
# [5] = compound: C1=CC2=NC=CN=C2C=C1/C=C/3\C(=O)NC(=O)S3
# How it was run: as §1
# [6] = compound: C1=CC=C(C=C1)C2=NC(=C(N2)C3=CC=NC=C3)C4=CC(=C(C=C4)Cl)O
# How it was run: as §1
# [7] = compound: C1=CC=C2C(=C1)C3=NNC4=CC=CC(=C43)C2=O
# How it was run: as §1
# [8] = compound: C1CCN(C1)C(=O)NC2=CC=CC(=C2)NC3=NC=C(C(=N3)NCCC4=CN=CN4)Br
# How it was run: as §1
# [9] = compound: C1CN(CCC1(CC2=CC=C(C=C2)Cl)N)C3=NC=NC4=C3C=CN4
# How it was run: as §1
Target,log2 fold change (erlotinib),log2 fold change [1],log2 fold change [2],log2 fold change [3],log2 fold change [4],log2 fold change [5],log2 fold change [6],log2 fold change [7],log2 fold change [8],log2 fold change [9]
DMAC2 isoform 4 (UniProt Q9NW81),inactive: 0.043,inactive: 0.048,inactive: 0.063,inactive: -0.008,inactive: 0.075,inactive: -0.038,inactive: 0,inactive: 0.013,inactive: 0.062,inactive: 0.02
DDB1 (UniProt Q16531),inactive: -0.03,inactive: 0.006,inactive: 0.009,inactive: 0.022,inactive: 0.003,inactive: 0.014,inactive: -0.019,inactive: -0.032,inactive: 0.018,inactive: 0.04
DNAH8 (UniProt Q96JB1),inactive: 0.148,inactive: -0.052,inactive: 0.138,inactive: -0.054,inactive: 0.166,inactive: 0,inactive: -0.014,inactive: -0.054,inactive: 0,inactive: 0.109
DHX40 (UniProt Q8IX18),inactive: 0.019,inactive: 0.05,inactive: -0.008,inactive: 0.071,inactive: 0.044,inactive: 0.092,inactive: -0.046,inactive: -0.034,inactive: -0.071,inactive: -0.038
DMXL1 (UniProt Q9Y485),inactive: 0.059,inactive: 0.071,inactive: -0.006,inactive: 0.006,inactive: 0.068,inactive: -0.001,inactive: 0.024,inactive: -0.02,inactive: 0.019,inactive: 0.034
DLST (UniProt P36957),inactive: -0.066,inactive: -0.088,inactive: -0.029,inactive: -0.023,inactive: -0.058,inactive: 0.007,inactive: -0.013,inactive: 0.011,inactive: 0.03,inactive: 0.004
DDAH2 (UniProt O95865),inactive: 0.022,inactive: 0.015,inactive: 0.015,inactive: 0,inactive: 0.07,inactive: 0.003,inactive: 0.003,inactive: -0.066,inactive: -0.001,inactive: 0.015
DNAJA2 (UniProt O60884),inactive: 0.011,inactive: 0.006,inactive: 0.04,inactive: 0.02,inactive: 0.05,inactive: 0.024,inactive: 0.021,inactive: -0.011,inactive: -0.025,inactive: -0.008
DDT (UniProt P30046),inactive: 0.003,inactive: 0.102,inactive: 0.196,inactive: 0.007,inactive: 0.093,inactive: 0,inactive: 0.044,inactive: -0.002,inactive: -0.026,inactive: 0.001
DENND10 (UniProt Q8TCE6),inactive: -0.01,inactive: -0.005,inactive: -0.049,inactive: -0.08,inactive: -0.051,inactive: 0.018,inactive: 0,inactive: -0.04,inactive: 0.063,inactive: 0.083
DDX4 (UniProt Q9NQI0),inactive: 0.576,inactive: -0.071,inactive: -0.23,inactive: -0.056,inactive: 0.006,inactive: 0,inactive: -0.305,inactive: 0.006,inactive: 0.053,inactive: -0.273
DDX59 (UniProt Q5T1V6),inactive: -0.055,inactive: 0.053,inactive: 0.097,inactive: -0.034,inactive: 0.03,inactive: -0.007,inactive: -0.018,inactive: -0.023,inactive: -0.019,inactive: 0
DHPS (UniProt P49366),inactive: 0,inactive: -0.01,inactive: 0.088,inactive: -0.002,inactive: -0.034,inactive: 0.033,inactive: 0.024,inactive: -0.004,inactive: -0.007,inactive: 0.021
DDX49 (UniProt Q9Y6V7),inactive: -0.083,inactive: -0.018,inactive: -0.171,inactive: 0.101,inactive: -0.02,inactive: 0.045,inactive: -0.015,inactive: 0.022,inactive: -0.04,inactive: -0.2
DLGAP4 (UniProt Q9Y2H0),inactive: -0.005,inactive: 0.035,inactive: 0.021,inactive: 0.017,inactive: -0.01,inactive: 0.016,inactive: 0.053,inactive: -0.023,inactive: 0.063,inactive: -0.01
DDX1 (UniProt Q92499),inactive: -0.044,inactive: 0.016,inactive: -0.079,inactive: -0.014,inactive: 0.01,inactive: 0.009,inactive: -0.01,inactive: 0.042,inactive: 0.017,inactive: -0.124
DNAAF2 (UniProt Q9NVR5),inactive: 0.046,inactive: 0.021,inactive: 0.108,inactive: -0.003,inactive: 0.01,inactive: 0.016,inactive: -0.018,inactive: -0.025,inactive: 0.021,inactive: -0.025
DLG3 (UniProt Q92796),inactive: 0.102,inactive: 0.028,inactive: -0.013,inactive: 0.146,inactive: 0.1,inactive: -0.156,inactive: 0.025,inactive: -0.14,inactive: -0.001,inactive: -0.016
DHODH (UniProt Q02127),inactive: 0.026,inactive: 0.017,inactive: 0.058,inactive: 0.002,inactive: 0.012,inactive: 0.023,inactive: -0.037,inactive: 0.014,inactive: -0.031,inactive: 0.076
DDX39A (UniProt O00148),inactive: 0.038,inactive: 0.027,inactive: 0.031,inactive: -0.03,inactive: -0.026,inactive: -0.068,inactive: -0.026,inactive: -0.059,inactive: -0.007,inactive: -0.019
DENND6A (UniProt Q8IWF6),inactive: 0.04,inactive: 0.031,inactive: 0.091,inactive: -0.036,inactive: 0.028,inactive: -0.06,inactive: -0.004,inactive: -0.054,inactive: 0.013,inactive: 0.135
DHX15 (UniProt O43143),inactive: 0.026,inactive: 0.008,inactive: 0.037,inactive: -0.005,inactive: -0.037,inactive: -0.001,inactive: 0.043,inactive: 0.015,inactive: -0.013,inactive: 0.065
DLAT (UniProt P10515),inactive: -0.182,inactive: -0.183,inactive: -0.309,inactive: 0.045,inactive: -0.106,inactive: -0.078,inactive: -0.022,inactive: 0.078,inactive: -0.009,inactive: -0.186
DES (UniProt P17661),inactive: 0.085,inactive: -0.259,inactive: -0.174,inactive: -0.095,inactive: 0.069,inactive: 0.039,inactive: 0.048,inactive: -0.052,inactive: -0.035,inactive: 0.117
DDX17 (UniProt Q92841),inactive: 0.008,inactive: 0.037,inactive: -0.016,inactive: 0.028,inactive: -0.022,inactive: -0.029,inactive: -0.021,inactive: -0.003,inactive: 0.003,inactive: -0.061
DHRS3 (UniProt O75911),inactive: 0.116,inactive: 0.041,inactive: 0.11,inactive: 0.018,inactive: 0.155,inactive: -0.037,inactive: 0.024,inactive: 0.074,inactive: 0.005,inactive: 0.191
DHDDS isoform 2 (UniProt Q86SQ9),inactive: 0.027,inactive: -0.011,inactive: 0,inactive: -0.03,inactive: -0.003,inactive: -0.008,inactive: -0.005,inactive: -0.022,inactive: -0.03,inactive: -0.025
DHRS1 (UniProt Q96LJ7),inactive: -0.045,active: 0.995,inactive: -0.02,inactive: -0.105,inactive: 0.353,inactive: -0.034,active: 0.813,inactive: -0.163,inactive: -0.163,inactive: -0.021
DHX16 (UniProt O60231),inactive: 0.01,inactive: 0.05,inactive: 0.224,inactive: 0.027,inactive: 0.007,inactive: -0.01,inactive: 0.014,inactive: 0.013,inactive: -0.044,inactive: 0.024
DNAJA1 (UniProt P31689),inactive: -0.019,inactive: 0.044,inactive: 0.009,inactive: 0,inactive: -0.039,inactive: 0.002,inactive: 0.017,inactive: 0.013,inactive: -0.027,inactive: -0.038

# Laid out differently: results already given.
Target | log2 fold change (erlotinib) | log2 fold change [1] | log2 fold change [2] | log2 fold change [3] | log2 fold change [4] | log2 fold change [5] | log2 fold change [6] | log2 fold change [7] | log2 fold change [8] | log2 fold change [9]
DDAH2 (UniProt O95865) | inactive: 0.022 | inactive: 0.015 | inactive: 0.015 | inactive: 0 | inactive: 0.07 | inactive: 0.003 | inactive: 0.003 | inactive: -0.066 | inactive: -0.001 | inactive: 0.015
DNAJA2 (UniProt O60884) | inactive: 0.011 | inactive: 0.006 | inactive: 0.04 | inactive: 0.02 | inactive: 0.05 | inactive: 0.024 | inactive: 0.021 | inactive: -0.011 | inactive: -0.025 | inactive: -0.008
